# PubChem BioAssay AID1508588, Peter MacCallum Cancer Centre | 2020
# Aim: 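Knock-downs boosting vemurafenib effects on melanoma cell growth or lactate release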 (primary screen)
# Cells: human WM266.4 melanoma cells (BRAF V600 mutant)
# Knock-down reagent: siRNA pool against human genes, 40 nM
# Time to read-out: 96 h from transfection to read-out
# Conditions: vemurafenib 300 nM (about IC25), added 48 h after transfection, for 48 h; comparison arm got DMSO vehicle only
# Detection: 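Ratios to non-targeting siRNA for cell gain, counted as DAPI nuclei after minus before drug and averaged over two replicates, and for absorbance-read medium lactate per cell; both binned into fold-change classes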
# Reading the numbers: cell gain with vemurafenib: higher = more cell gain than with non-targeting siRNA; lactate per cell with vemurafenib: higher = more lactate made per cell
# Call rule: 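Enhancement is called by pairing each knock-down's vehicle-arm and drug-arm fold-change classes for viability or glycolysis; which class combinations qualify is not given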
# Calls: active = enhances vemurafenib effect; inactive = no enhancement seen
# Here is one part, drawn at random, of about 18,000 reagents. 790 of them (4.4%) were called active. 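Calls rest on a combination of fold-change classes in drug and vehicle arms, not all shown here.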 Unmarked entries are inactive.
target gene,cell gain with vemurafenib,lactate per cell with vemurafenib
ANKS4B,0.85,0.58
ASTL,0.2,0.76
MYO1D,1.06,0.55
TMEM219,0.32,0.96
HAS2,1.05,0.86
PSG3,0.84,0.84
CLDN9,0.61,1.32
CHRNA9,0.75,1.28
HTR1A,0.39,1.22
SMR3A,0.35,1.4
CHGA,0.68,1.04
SHTN1,0.32,1.6
SLC30A6,0.88,0.75
BANF2,0.29,2.25
RAB24,0.6,0.82
KLK8,0.5,0.63
GADD45A,1.03,0.73
HSPA1B,0.97,0.64
KRTAP4-11,0.26,0.94
CDC6,0.58,1.62
PPM1K,1.05,0.7
ESYT2,0.73,0.9
PMVK,0.49 (active),0.42
SLC2A2,0.28,1.19
GLT8D2,0.5,1.19
H2BC12,1,0.67
TECPR2,0.31,0.92
FUT6,0.68,0.78
EVI2B,0.66,0.84
ELSPBP1,0.2,1.05
RPL36AL,-0.03 (active),0.26
LTA4H,0.96,0.84
SARAF,0.13,0.4
ASB15,0.27,0.64
KCNE3,0.57,1.64
NMI,0.64,1.07
RTN4RL1,1.12,0.74
MATN1,0.9,1.06
ANP32CP,0.65,0.32
CLPTM1L,0.37,1.15
MAEA,0.59,0.91
WRN,0.55,0.74
HEATR6,0.65,0.69
MRC2,0.82,0.82
PCDHB1,0.68,0.96
UBXN1,0.77,0.96
TMPRSS5,0.69,0.78
SDHAF1,0.08,1.82
LSM10,0.65,0.56
SERPINA6,0.27,1.87
STK32C,0.49,0.97
MYCL,0.55,1.41
SLC39A6,0.96,0.82
IL18,0.32,0.44
BLTP3A,0.67,0.55
DHX58,0.46,0.9
PMCH,0.54,0.55
TP53TG5,0.65,1.48
ALKBH4,0.65,1.8
TRIM49C,0.97,0.78
KHSRP,0.06,0.62
CEACAM18,1.09,0.92
OR10W1,0.39,1.18
NNT,0.4,0.5
SPTBN4,0.96,0.8
CAPRIN1,0.16,2.97
STXBP6,0.62,1.17
OR4F3,0.77,0.43
RAB41,0.46 (active),0.43
ATP6AP1L,0.01 (active),0.4
UQCRFS1,1.27,1.5
RNASE4,0.63,1.68
ATP1A4,0.58,0.81
PRRT1,0.33,1.23
NACC2,0.08,0.98
ANKMY2,1,1.08
HIGD1A,0.94,0.68
UHRF1,0.69 (active),0.7
IRX1,0.59,1.11
CYP4F12,0.48,1.27
CKS2,1.06,0.96
KCND2,0.67,0.59
POLR2G,0.21,0.82
NAXE,0.45,0.88

An excerpt from the list above:
target gene,cell gain with vemurafenib,lactate per cell with vemurafenib
NNT,0.4,0.5
SPTBN4,0.96,0.8
CAPRIN1,0.16,2.97
STXBP6,0.62,1.17
OR4F3,0.77,0.43
RAB41,0.46 (active),0.43
ATP6AP1L,0.01 (active),0.4
UQCRFS1,1.27,1.5
